Measurements reported in patent US5002943A, “Condensed diazepinones, processes for preparing them and pharmaceutical compositions containing these compounds” (priority 1988, dated 1991).
pIC50: −log10 of the molar value. Structures can show the parent of a compound that is named as a salt. At least one compound was matched to its structure with a doubt left.

Target: muscarinic receptors (cerebral cortex)
Assay: Muscarinic receptor binding, cerebral cortex (displacement of 3H-N-methylscopolamine)
Set-up: species or system male Sprague-Dawley rats
Conditions: cerebral cortex homogenate; 0.3 nanomolar 3H-NMS; 30 C; 45 minutes; pH 7.4; read-out: Receptor Binding Tests IC50, Cortex
Description: A. Studies of binding to muscarinic receptors:
In vitro measurement of the IC50 value
The organs were donated by male Sprague-Dawley rats weighing 180-220 g. After the heart and submandibular gland and cerebral cortex had been removed, all other steps were carried out in ice cold Hepes HCl buffer (pH 7.4; 100 millimolar NaCl, 10 millimolar MgClz). The whole heart was cut up with scissors. All the organs were then homogenised in a Potter apparatus.
For the binding test the homogenised organs were diluted as follows:
The homogenised organs were incubated at a certain concentration of the radioligand and at a series of concentrations of the non-radioactive test substances in an Eppendorf centrifuge tube at 30 C. Incubation lasted 45 minutes. The radioligand used was 0.3 nanomolar 3H-N-methylscopolamine (^3 H-NMS). Incubation was ended by the addition of ice cold buffer followed by vacuum filtration. The filters were rinsed with cold buffer and their radioactivity was determined. It represents the sum of specific and non-specific binding of ^3 H-NMS. The proportion of non-specific binding was defined as the radioactivity which was bound in the presence of 1 micromolar quinuclidinylbenzylate. Each measurement was taken four times. The IC50 values of the non-labelled test substances were determined graphically. […]

CN(CCC1CCCN1C)CC(=O)N1c2ccccc2C(=O)Nc2cccnc21 (stereo not shown) [Substance A, hydrochloride]
pIC50: 7.30
